According to patent US20250352661A1 (MYTHIC THERAPEUTICS, published 2025):
Substitutions are numbered along the chain they refer to. No constants are given. Whether binding was seen depends on the method and setting. Some entries that bind do so weakly or less than the wild type.

Amino acid sequences for entries named in this document (tags omitted). Residues count along the entry.
UniProt Q8TF66, residues 22-538: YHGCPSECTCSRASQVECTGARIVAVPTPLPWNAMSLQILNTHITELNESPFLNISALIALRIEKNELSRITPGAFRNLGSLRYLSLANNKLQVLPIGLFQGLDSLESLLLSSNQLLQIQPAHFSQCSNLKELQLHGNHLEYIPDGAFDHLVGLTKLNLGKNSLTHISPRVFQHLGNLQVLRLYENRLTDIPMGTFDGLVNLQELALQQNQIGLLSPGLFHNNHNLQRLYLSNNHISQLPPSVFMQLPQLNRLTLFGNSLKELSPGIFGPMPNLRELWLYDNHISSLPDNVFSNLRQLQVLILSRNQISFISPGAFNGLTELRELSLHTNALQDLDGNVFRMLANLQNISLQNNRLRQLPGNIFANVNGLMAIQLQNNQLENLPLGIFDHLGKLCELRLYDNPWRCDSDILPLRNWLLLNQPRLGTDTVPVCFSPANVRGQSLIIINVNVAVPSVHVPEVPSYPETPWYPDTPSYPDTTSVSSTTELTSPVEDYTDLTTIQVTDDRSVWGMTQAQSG

B1: MYT8510 (antibody, V domains shown)
VH: QQQLVESGGGLVKPGASLTLTCKASGFSFSGSYWICWVRQAPGKGLEWIGCHNGGSHDHTYYASWAKGRFTISKASSTTVTLQKTSLTAADTATYFCASDTSYTAYGNFYFNLWGPGTLVTVSS
VL: AQVLTQTASPVSAAVGGTVTINCQSSQSVLNNNWLAWYQQKPGQPPKLLIYDASSLASGVPSRFKGSGSGTQFTLTISDLESDDAATYYCQGEFSCGSADCNAFGGGTEVVVKG
B2: MYT9765 (antibody, V domains shown)
VH: B1 VH with H52I, N53H, H57R, H59I
VL: B1 VL
B3: MYT9767 (antibody, V domains shown)
VH: B1 VH with S32H, H52I, N53H, H59I
VL: B1 VL
B4: MYT9768 (antibody, V domains shown)
VH: B1 VH with S32H, H52I, N53H, H57R, H59I
VL: B1 VL
B5: MYT9769 (antibody, V domains shown)
VH: B1 VH with S32H, H52I, N53H, H57L, H59Q
VL: B1 VL
B6: MYT6090 (antibody, V domains shown)
VH: QEQLEESGGDLVKPGASLTLTCTASGLDFRRTNYIHWVRQAPGKGLEWIGSIYIADVVHYYASWAKGRFTFSKTSSTTVTLQMTSLTAADTATYFCARGADGGFVYGMDLWGPGTLVTVSS
VL: DVVMTQTPASVSEPVGGTVTIKCQASQSIGNYLSWYQQKPGQRPKRLIYSASTLPSGVPSRFKGAGSGTEFTLTISDLESADAATYYCQNNYWLAGYGHPFGGGTEVVVK
B7: MYT6091 (antibody, V domains shown)
VH: B6 VH with H36S, S51H
VL: B6 VL

Target: Human LRRC15 Protein, His Tag (Acro Biosystems) (human) (UniProt Q8TF66)
Test: BLI (Octet), Ab on anti-human Fc sensor, 50 nM LRRC15 at pH 7.4; dissociation at pH 7.4 or 5.4

binding, binds:
B1
B2
B3
B4
B5

Target: Human LRRC15 Protein, His Tag (Acro Biosystems) (human) (UniProt Q8TF66)
Test: BLI; dissociation pH 7.4 black, pH 5.4 grey [1/2); D00006 FIG. 1E (1/2]

binding, binds:
B6
B7

Target: Human LRRC15 Protein, His Tag (Acro Biosystems) (human) (UniProt Q8TF66)
Test: BLI (Octet RED 96e), supernatant on anti-human Fc sensor, 50 nM LRRC15-His, association pH 7.4, dissociation pH 7.4 or 5.4

binding, binds:
B6
B7
